This series concerns the target PdhR (Escherichia coli MG1655) (UniProt P0ACL9). Nature of the series: binding assay. As to conditions: ChIP-qPCR in LB + 0.2% glucose; t-test p 0.004, rank-sum p 0.1; 2 of 6 replicates extremely enriched; SEQ:7 is the fecA motif of FIG. 6D, ChIP amplicon not given; protein in cells.

By UniProt entry, the sequences of proteins in these tests, tags left out. Where a name states a change or a piece, a line headed by the entry shows the natural chain unless it says otherwise.
UniProt P0ACL9: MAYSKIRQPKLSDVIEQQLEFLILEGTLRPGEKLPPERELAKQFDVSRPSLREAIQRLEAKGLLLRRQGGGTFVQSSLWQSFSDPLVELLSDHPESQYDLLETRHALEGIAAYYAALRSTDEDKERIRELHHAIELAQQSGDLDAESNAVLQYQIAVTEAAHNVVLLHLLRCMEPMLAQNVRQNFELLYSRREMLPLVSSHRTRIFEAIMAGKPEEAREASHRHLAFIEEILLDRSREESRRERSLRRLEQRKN

For at least one entry, the source does not settle the construct or the ends of the probe. Results from cells or extracts need not show a direct contact.

The values that follow come from patent US8306752.

As to “GGAAAATAATTCTTATTTCGATTGTCCTTTTTACCCTTCTCGTTCGACTCAT (double strand) [fecA operon promoter region]”, the binding result was “binds”.
